Our source for the isolated mass and isolated yield values is patent US5428020A (Matsueda; Rei, priority 1994, dated 1995).

This data set is described as follows: general procedure: Boc solid-phase peptide synthesis; benzhydrylamine resin; dicyclohexylcarbodiimide / 1-hydroxybenzotriazole. The following applies: whole synthesis, TFA salt.

For the substance “TFA.H-Phe-Gln-Val-Val-Cys(NpyS)-Gly-NH2 (FQVVC; Cys(NpyS); C-terminal Gly-NH2; TFA salt; printed: Phe-Gln-Val-Val-Cys)”, the isolated mass is recorded as 415 mg. For the setting “from the initial resin, scale of the general procedure 0.2g, 1.04 mmol”, the isolated yield amounted to 42%.
